Results are given in words; binding and its absence hold for the method and conditions named. Binding calls can cover weak binding; strength is not graded here.

Chains of the proteins cited; added tags and fusions are not shown.
UniProt Q93Z00: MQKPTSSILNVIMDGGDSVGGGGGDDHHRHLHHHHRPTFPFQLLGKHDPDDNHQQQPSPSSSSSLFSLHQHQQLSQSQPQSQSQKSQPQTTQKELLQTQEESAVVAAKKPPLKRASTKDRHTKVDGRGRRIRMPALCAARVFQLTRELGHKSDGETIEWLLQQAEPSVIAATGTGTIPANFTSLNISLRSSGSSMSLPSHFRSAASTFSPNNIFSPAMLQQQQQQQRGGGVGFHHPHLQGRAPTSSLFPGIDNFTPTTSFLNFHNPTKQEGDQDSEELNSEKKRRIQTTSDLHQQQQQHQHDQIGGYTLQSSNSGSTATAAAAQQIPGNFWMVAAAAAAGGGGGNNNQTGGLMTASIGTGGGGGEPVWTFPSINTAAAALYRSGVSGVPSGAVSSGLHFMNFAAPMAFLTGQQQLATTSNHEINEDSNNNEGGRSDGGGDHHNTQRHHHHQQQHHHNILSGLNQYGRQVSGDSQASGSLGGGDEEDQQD

In this experiment the target is PePCF10 (bait in pDEST_GBKT7) (Phalaenopsis equestris). The experiment can be described thus: two-hybrid; yeast two-hybrid; PePCF10 bait in pDEST_GBKT7, Arabidopsis TCP preys in pDEST_GAD424, Y2H Gold yeast strain; growth on test medium lacking histidine, leucine and tryptophan.

With “Arabidopsis TCP14 (from UniProt Q93Z00 1-489)”, the binding entry is “binds”.

B1: Arabidopsis TCP10 (protein, UniProt O82277 1-361)
chain: MGLKGYSVGEGGGEIVEVQGGHIIRATGRKDRHSKVFTSKGPRDRRVRLSAHTAIQFYDVQDRLGYDRPSKAVDWLIKKAKTAIDKLELGETTTTTTRQEPVNTKPESPTLVFQRENNDQTQFVAANLDPEDAMKTFFPATTTTNGGGGTNINFQNYPHQDDNNMVSRTTTPPPNLSQDLGLSLHPFQGNNNTVVVPETNNFTTTHFDTFGRISGWNHHDLTMTSSSSSEHQQQEQEERSNGGFMVNHHPHHHHHQPSMMTLLNSQQQQVFLGGQQQQQQRGTLQSSLFPHSFRSWDHHQTTSDHHHHQNQASSMFASSSQYGSHGMMMMQGLSFPNTTRLLHGEEATQPNSSSSPPNSHL
B1: the binding result is reported as “binds”.

B2: Arabidopsis TCP4 (protein, UniProt Q8LPR5 1-420)
chain: MSDDQFHHPPPPSSMRHRSTSDAADGGCGEIVEVQGGHIVRSTGRKDRHSKVCTAKGPRDRRVRLSAHTAIQFYDVQDRLGFDRPSKAVDWLIKKAKTSIDELAELPPWNPADAIRLAAANAKPRRTTAKTQISPSPPPPQQQQQQQQLQFGVGFNGGGAEHPSNNESSFLPPSMDSDSIADTIKSFFPVIGSSTEAPSNHNLMHNYHHQHPPDLLSRTNSQNQDLRLSLQSFPDGPPSLLHHQHHHHTSASASEPTLFYGQSNPLGFDTSSWEQQSSEFGRIQRLVAWNSGGGGGATDTGNGGGFLFAPPTPSTTSFQPVLGQSQQLYSQRGPLQSSYSPMIRAWFDPHHHHQSISTDDLNHHHHLPPPVHQSAIPGIGFASGEFSSGFRIPARFQGQEEEQHDGLTHKPSSASSISRH
On to B2, for which the binding entry is recorded as “binds”.

B3: Arabidopsis TCP3 (protein, UniProt Q9MAH8 1-391)
chain: MAPDNDHFLDSPSPPLLEMRHHQSATENGGGCGEIVEVQGGHIVRSTGRKDRHSKVCTAKGPRDRRVRLSAPTAIQFYDVQDRLGFDRPSKAVDWLITKAKSAIDDLAQLPPWNPADTLRQHAAAAANAKPRKTKTLISPPPPQPEETEHHRIGEEEDNESSFLPASMDSDSIADTIKSFFPVASTQQSYHHQPPSRGNTQNQDLLRLSLQSFQNGPPFPNQTEPALFSGQSNNQLAFDSSTASWEQSHQSPEFGKIQRLVSWNNVGAAESAGSTGGFVFASPSSLHPVYSQSQLLSQRGPLQSINTPMIRAWFDPHHHHHHHQQSMTTDDLHHHHPYHIPPGIHQSAIPGIAFASSGEFSGFRIPARFQGEQEEHGGDNKPSSASSDSRH
Regarding B3, the binding result is listed as “binds”.

These data come from publication PMC5014156.
